Our source for the binding values is PMC6769069.

This test concerns the target T1, HybD endoprotease fused with peptide T18 of adenylate cyclase (pT18-hybD) (Escherichia coli) (UniProt P37182).
T1 sequence: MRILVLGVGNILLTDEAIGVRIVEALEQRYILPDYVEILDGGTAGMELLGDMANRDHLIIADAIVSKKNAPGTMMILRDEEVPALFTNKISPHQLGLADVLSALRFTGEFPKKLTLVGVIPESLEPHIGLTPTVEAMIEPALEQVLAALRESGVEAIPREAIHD
The test is described as follows: two-hybrid; bacterial two-hybrid (adenylate cyclase fragments T25 and T18) in E. coli BTH101; T25 at the N-terminus of the large subunit variants, T18 fused with HybD; anaerobic growth in TGYEP medium pH 6.5 at 30°C for 16 h; β-galactosidase activity according to Miller.

These are yes or no findings as the source states them, for the method shown. Some entries that bind do so weakly or less than the wild type. Tags and fused reporters may be left off the sequences shown.

B1: pro-HybC^ST fused to peptide T25 of adenylate cyclase (pT25-hybC^ST) (protein, UniProt P0ACE0 2-567)
chain: SQRITIDPVTRIEGHLRIDCEIENGVVSKAWASGTMWRGMEEIVKNRDPRDAWMIVQRICGVCTTTHALSSVRAAESALNIDVPVNAQYIRNIILAAHTTHDHIVHFYQLSALDWVDITSALQADPTKASEMLKGVSTWHLNSPEEFTKVQNKIKDLVASGQLGIFANGYWGHPAMKLPPEVNLIAVAHYLQALECQRDANRVVALLGGKTPHIQNLAVGGVANPINLDGLGVLNLERLMYIKSFIDKLSDFVEQVYKVDTAVIAAFYPEWLTRGKGAVNYLSVPEFPTDSKNGSFLFPGGYIENADLSSYRPITSHSDEYLIKGIQESAKHSWYKDEAPQAPWEGTTIPAYDGWSDDGKYSWVKSPTFYGKTVEVGPLANMLVKLAAGRESTQNKLNEIVAIYQKLTGNTLEVAQLHSTLGRIIGRTVHCCELQDILQNQYSALITNIGKGDHTTFVKPNIPATGEFKGVGFLEAPRGMLSHWMVIKDGIISNYQAVVPSTWNSGPRNFNDDVGPYEQSLVGTPVADPNKPLEVVRTIHSFDPCMACSTHVVDADGNEVVSVKVL
As for B1, the binding result is listed as “binds”.

B2: pro-HyaB, large subunit precursor of E. coli hydrogenase 1, fused to the T25 adenylate cyclase fragment (pT25-hyaB) (protein, UniProt P0ACD8 2-597)
chain: STQYETQGYTINNAGRRLVVDPITRIEGHMRCEVNINDQNVITNAVSCGTMFRGLEIILQGRDPRDAWAFVERICGVCTGVHALASVYAIEDAIGIKVPDNANIIRNIMLATLWCHDHLVHFYQLAGMDWIDVLDALKADPRKTSELAQSLSSWPKSSPGYFFDVQNRLKKFVEGGQLGIFRNGYWGHPQYKLPPEANLMGFAHYLEALDFQREIVKIHAVFGGKNPHPNWIVGGMPCAINIDESGAVGAVNMERLNLVQSIITRTADFINNVMIPDALAIGQFNKPWSEIGTGLSDKCVLSYGAFPDIANDFGEKSLLMPGGAVINGDFNNVLPVDLVDPQQVQEFVDHAWYRYPNDQVGRHPFDGITDPWYNPGDVKGSDTNIQQLNEQERYSWIKAPRWRGNAMEVGPLARTLIAYHKGDAATVESVDRMMSALNLPLSGIQSTLGRILCRAHEAQWAAGKLQYFFDKLMTNLKNGNLATASTEKWEPATWPTECRGVGFTEAPRGALGHWAAIRDGKIDLYQCVVPTTWNASPRDPKGQIGAYEAALMNTKMAIPEQPLEILRTLHSFDPCLACSTHVLGDDGSELISVQVR
Turning to B2, the binding entry is given as “no binding”.
